Data on 2 molecules can be found in article doi:10.1101/2025.01.09.632087.

No constants are given. Whether binding was seen depends on the method and setting. Binding seen in cells or lysates may run through a third protein. Some results given as binding are weak or reduced against the parent protein; the word gives no strength. Sequences can lack the tags named with a protein.

Test [1] deals with T1, full-length PLD3 with a C-terminal 3xFLAG-tag (PLD3-FLAG) (human) (UniProt Q8IV08).
T1 sequence: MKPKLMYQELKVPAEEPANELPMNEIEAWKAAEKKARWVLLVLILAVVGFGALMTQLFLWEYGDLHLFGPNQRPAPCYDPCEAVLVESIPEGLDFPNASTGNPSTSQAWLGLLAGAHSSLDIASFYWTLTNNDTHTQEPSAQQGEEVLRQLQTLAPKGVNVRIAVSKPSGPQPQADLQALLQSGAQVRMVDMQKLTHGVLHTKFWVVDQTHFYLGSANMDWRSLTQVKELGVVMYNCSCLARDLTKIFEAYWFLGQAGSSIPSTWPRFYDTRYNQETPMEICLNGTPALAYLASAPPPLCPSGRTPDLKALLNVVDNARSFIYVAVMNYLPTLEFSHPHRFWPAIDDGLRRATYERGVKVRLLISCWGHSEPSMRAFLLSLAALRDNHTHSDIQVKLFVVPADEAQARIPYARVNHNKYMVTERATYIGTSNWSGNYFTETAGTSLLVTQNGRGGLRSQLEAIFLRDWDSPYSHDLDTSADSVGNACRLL
The test is described as follows: co-IP.

Test [2] has as its target T2, wt FICD with a C-terminal FLAG(3x)-tag (FICD-FLAG) (human) (UniProt Q9BVA6).
T2 sequence: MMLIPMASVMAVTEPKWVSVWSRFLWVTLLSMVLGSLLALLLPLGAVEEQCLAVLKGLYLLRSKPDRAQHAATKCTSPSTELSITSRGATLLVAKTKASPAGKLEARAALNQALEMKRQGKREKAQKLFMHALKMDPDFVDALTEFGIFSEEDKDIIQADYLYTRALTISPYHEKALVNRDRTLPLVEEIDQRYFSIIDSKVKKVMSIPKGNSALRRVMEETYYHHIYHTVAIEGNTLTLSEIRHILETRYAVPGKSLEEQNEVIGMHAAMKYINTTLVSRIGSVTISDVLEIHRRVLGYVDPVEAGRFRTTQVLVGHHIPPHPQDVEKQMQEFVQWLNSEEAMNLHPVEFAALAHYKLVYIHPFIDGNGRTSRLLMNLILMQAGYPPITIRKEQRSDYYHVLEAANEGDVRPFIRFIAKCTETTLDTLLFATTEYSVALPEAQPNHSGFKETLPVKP
Put plainly: co-IP.

B1: wt FICD (protein adenylyltransferase FICD, without affinity tag) (enzyme, UniProt Q9BVA6 1-458)
chain: T2 sequence
As for B1, the binding result in test [1] is reported as “binds”.

B2: wt PLD3 (without an affinity tag) (enzyme, UniProt Q8IV08 1-490)
chain: T1 sequence
Turning to B2, the binding result in test [2] was “binds”.
